Source: PubChem BioAssay AID1487 (National Center for Advancing Translational Sciences (NCATS), 2009)
The whole screen tested about 200,000 compounds, of which about 25 (0.01%) were called active. This list was built around the results that the source calls inconclusive (neither active nor inactive); the mix of calls is not that of the screen. Calls come from the whole dose curve; as a rule, active = well fitted inhibition curve with a large enough effect in the signal ratio, with a control signal flat (not every such curve was filed as active); inconclusive = small, poorly fitted or top-dose-only effect, or effect the other way, or a change in a side signal; inactive = flat fitted curve, though single readings scatter; the % refers to the signal ratio. Where the call is inconclusive, the potency comes from a doubtful curve fit.

Assay: qHTS Assay for Modulators of Lamin A Splicing
Settings: HeLa LMNA splicing GFP/RFP minigene ratio, 48 h; ratio change, negative = inhibition: at 46.1 µM (top of the series) unless noted
Outline: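 S3 HeLa stable clones carrying a lamin A-EGFP splicing minigene plus DsRed2 were seeded at 600 cells/well in Opti-MEM with 2% FBS, pin-dosed and incubated 48 h at 37°C. Acumen cytometry (488 nm) gave the GFP/RFP total-intensity ratio.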
% is set by controls: 0 for no effect and ±100 for the full control effect; potency is the fitted concentration of half-maximal effect.

| Compound | ratio change, negative = inhibition | Potency |
| --- | --- | --- |
| Cc1cccc(N(CC(=O)NCc2ccco2)C(=O)CCC(=O)Nc2nccs2)c1 | inactive: 9.68% [at 46 µM] |  |
| Cc1nn(-c2nc3ccccc3s2)c(C)c1Oc1ccccc1O | inconclusive: -15.5% |  |
| Cc1cccc(C(=O)NC(NCCc2ccccc2)C(Cl)(Cl)Cl)c1 (configuration not stated) | inconclusive: 10.2% |  |
| Cc1ccc2cc(C)c(SCC(=O)NCc3ccco3)nc2c1 | inconclusive: -27.8% [at 46 µM] |  |
| Cc1ccc(C)c(Nc2c([N+](=O)[O-])cc(C(=O)N3CC(=O)Nc4ccccc43)cc2[N+](=O)[O-])c1 | inconclusive: -19.4% |  |
| CCc1ccc(N2CC(C(=O)OCC(=O)NC3CCS(=O)(=O)C3)CC2=O)cc1 (configuration not stated) | inactive: -2.76% |  |
| O=C(O)C1CC(O)CN1c1nc(Cl)ccc1[N+](=O)[O-] (configuration not stated) | inconclusive: 15% [at 46 µM] |  |
| CC(=O)c1cnc2ncnn2c1C | inactive: -3.43% |  |
| CN(C)S(=O)(=O)c1ccc(C(=O)Nc2ccccc2[N+](=O)[O-])cc1 | inconclusive: -0.207% |  |
| Cc1cc(=O)[nH]c2nnc(SCc3cccc(F)c3)n12 | inconclusive: 12.1% [at 46 µM] |  |
| Cc1ccc(NC(=O)COC(=O)C2CC2)c(Br)c1 | inactive: 6.67% |  |
| O=C(O)c1ccc(Cn2cnc3scc(-c4ccccc4)c3c2=O)cc1 | inconclusive: 11.7% [at 46 µM] |  |
| O=c1[nH]c2c(s1)C(c1ccccc1)C1C3CCC(C3)C1S2 (configuration not stated) | inconclusive: 32.2% |  |
| O=C(NN1CCN(Cc2ccccc2)CC1)c1ccc(N2CCOCC2)c([N+](=O)[O-])c1 | inactive: 11.4% [at 46 µM] |  |
| O=C(N/N=C/c1ccccc1OC(=O)c1ccc2c(c1)OCO2)c1ccccc1 | inconclusive: -37.1% |  |
| Cc1ccc(Oc2cnc3ccccc3n2)cc1 | inconclusive: 32.6% |  |
| CCCC12C(=O)C(C)(C(c3ccccc3)=C1c1ccccc1)C1C(=O)N(c3ccc(C)cc3)C(=O)C12 (configuration not stated) | inconclusive: 7.93% |  |
| Cc1cccc(OCCCC(=O)Nc2ccc3c(c2)OCO3)c1 | inconclusive: 12% |  |
| CCC(C)NCCC(=O)Nc1ccc(Cl)c(S(=O)(=O)Nc2ccc(Cl)cc2)c1 (configuration not stated) | inconclusive: -30% [at 46 µM] |  |
| Cc1ccccc1-c1noc(N)c1C#N |  | inconclusive: 20 µM [inhibitor, partial curve] |
| CC(O)CNc1nc2ccccc2n1CC(=O)NC12CC3CC(CC(C3)C1)C2 (configuration not stated) | inconclusive: -11.2% [at 46 µM] |  |
| CCOc1ccc(-n2c(SCc3ccc([N+](=O)[O-])cc3)nnc2-c2ccc(OC)cc2)cc1 |  | inconclusive: 35.5 µM [fluorescent, single point] |
| CCCc1cc(=O)oc2c(C)c3occ(C)c3cc12 | inconclusive: 4.57% |  |
| O=C(O)C1(O)CC(O)C(O)C(O)C1 (configuration not stated) | inconclusive: -34.9% |  |
| COc1ccc(-n2cc(-c3ccc(OC(F)F)cc3)[n+]3c2CCCCC3)cc1 | inconclusive: -36.5% [at 46 µM] |  |
| Cc1ccc(Cl)cc1N1CCN(C(=O)CN(C2CCCCC2)S(C)(=O)=O)CC1 |  | inconclusive: 15.8 µM [falling, single point] |

Filtered by structure: the compounds so far containing an aryl methoxy group (2)

| Compound | ratio change, negative = inhibition | Potency |
| --- | --- | --- |
| CCOc1ccc(-n2c(SCc3ccc([N+](=O)[O-])cc3)nnc2-c2ccc(OC)cc2)cc1 |  | inconclusive: 35.5 µM [fluorescent, single point] |
| COc1ccc(-n2cc(-c3ccc(OC(F)F)cc3)[n+]3c2CCCCC3)cc1 | inconclusive: -36.5% [at 46 µM] |  |

Additional entries.

| Compound | ratio change, negative = inhibition | Potency |
| --- | --- | --- |
| Cc1cc(C)c2c(c1)[C@@H]1C=CC[C@@H]1[C@H](c1ccc(S(=O)(=O)N3CCOCC3)cc1)N2 | inconclusive: 0.9% |  |
| COc1ccc(CNC(=O)[C@H](C)[C@@H]2C[C@@]2(C)[C@@H](NC(=O)OCc2ccccc2)c2ccccc2)cc1OC | inconclusive: -25.8% |  |
| C=CCNC(=O)c1c(Cl)cccc1Cl | inactive: -0.677% |  |
| CCOc1ccc(NC(=O)COc2ccc(C(=O)NCCc3ccccc3)cc2)cc1 | inactive: -11.1% |  |
| CSc1nc(N)nc(SCC(=O)c2ccccc2)c1C#N | inconclusive: -4.7% |  |
| COc1ccc(-n2c(SCC(=O)Nc3ccc4c(c3)OCO4)nc3c(c2=O)SCC3)cc1 | inactive: -5.46% |  |
| COc1ccc(Cc2nc3ccc(C(=O)NCCc4ccc(Cl)cc4)cc3o2)cc1 | inconclusive: 7.44% [at 46 µM] |  |
| c1ccc(-c2nnc3sc(CN4CCc5ccccc54)cn23)cc1 | inconclusive: -35.7% |  |
| N/C(=N/OC(=O)c1ccccc1Cl)c1nonc1N | inconclusive: 13.4% [at 9.22 µM] |  |
| Cc1ccc(NS(=O)(=O)c2cc(NC(=O)c3ccc4c(c3)NC(=O)CS4)ccc2Cl)c(C)c1 | inconclusive: -5.21% [at 46 µM] |  |
| O=C(CSc1nnc(-c2ccccc2)n1Cc1ccccc1)NNC(=O)c1ccccc1O |  | inconclusive: 35.5 µM [fluorescent, single point] |
| C=CCOc1nc2c(c(=O)n(C)c(=O)n2C)n1Cc1c(Cl)cccc1Cl | inconclusive: 30.1% |  |
| C/C(=N\NC(=O)C(=O)Nc1cccc(Cl)c1)c1ccncc1 | inconclusive: 10.4% |  |
| C=CCC1(O)CC(c2ccco2)NC(c2ccco2)C1CCC (configuration not stated) | inactive: -3.09% |  |
| Clc1ccc(Cn2ncc3c(N4CCCCC4)ncnc32)c(Cl)c1 | inconclusive: -23.9% |  |
| CCC(=O)c1ccc(OCC(=O)NCC2(N3CCCCC3)CCCCC2)cc1 | inconclusive: 12.5% [at 46 µM] |  |
| CN1CCN(C(=O)CCc2ncc(C(F)(F)F)cc2Cl)CC1 | inconclusive: 17.4% [at 9.22 µM] |  |
| Cc1cc2cc3c(N)[nH]nc3nc2cc1C | inconclusive: 13.8% |  |
| COc1c(Cl)cc(Cl)cc1/C=C(\C#N)c1nc2ccccc2[nH]1 | inconclusive: 0.64% [at 46 µM] |  |
| Fc1ccc(-n2cc(CNCCc3ccncc3)c(-c3ccccc3Cl)n2)cc1 | inconclusive: 4.49% [at 46 µM] |  |
| O=C(CNC(=O)c1ccco1)OC(C(=O)c1ccccc1)c1ccccc1 (configuration not stated) | inactive: 9.46% |  |
| Cc1ccc2nc(SCC(=O)c3ccc(O)cc3O)[nH]c2c1 | inconclusive: -17.1% [at 46 µM] |  |
| CN(C)c1ccc(-c2n[nH]c(=S)n2-c2ccccc2)cc1 | inconclusive: 2.67% [at 46 µM] |  |
| CCCCOc1ccc(C(=O)NCC2(N3CCN(C)CC3)CCCCC2)cc1 | inconclusive: 8.64% [at 46 µM] |  |
| CCOC(=O)C1CCN(c2nc(-c3ccc(Br)cc3)nc3ccccc23)CC1 | inconclusive: -17.2% [at 46 µM] |  |
| O=C(Nc1ccccc1)c1nn(-c2ccccc2)c(=O)cc1C(F)(F)F | inconclusive: 33.3% |  |
